A short description of this test: qHTS Assay for Modulators of Lamin A Splicing. The following applies: HeLa LMNA splicing GFP/RFP minigene ratio, 48 h. The method in brief: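 S3 HeLa cells stably expressing lamin A-EGFP splicing minigene plus DsRed2, 600 cells/well, 48 h compound exposure at 37C. Laser-scanning cytometry; analysed as GFP (500-530 nm)/RFP (575-640 nm) total intensity ratio; 0.5% DMSO vehicle.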

The mark [1] stands for this setting: measured here: RFP viability control channel.
Where [2] appears, read: measured here: GFP splicing reporter channel.

This is one part of the list. These are further read-outs of the screen, such as a control signal, another cell line or another target. No call is given for them. The list favours compounds with an active or inconclusive main result. The note in brackets gives the kind of curve behind each potency; many fits are weak.

On to `c1ccc(C2Oc3ccccc3C3CC(c4cccs4)=NN32)cc1` (stereo unspecified), for which the AC50 (in general, the concentration giving half of the maximal activity seen) under setting [1] was 12.6 µM [rising, partial curve].
On the same count and under the same terms, to `CCN=c1scc(C)n1/N=C/c1cc(Br)c(O)c(OC)c1` belongs 35.5 µM [rising, single point]; to `COc1cccc(NC(=S)N/N=C2\CC(C)(C)Oc3ccc(O)cc32)c1`, 10 µM [rising, partial curve].
For the compound `CCN(CC)C(=O)C1CCN(S(=O)(=O)c2c(C)noc2/C=C/c2cccc(OC)c2)CC1`, the AC50 was 35.5 µM [falling, single point] under setting [2] and 35.5 µM [falling, single point] under setting [1].
For `O=C(CCCCCNc1nc(=S)[nH]c2ccccc12)NCCc1c[nH]c2ccccc12`, the AC50 under setting [2] was 1 µM [falling, partial curve] and the AC50 under setting [1] is 1.41 µM [falling, full curve, poor fit].
As for `CCCCc1ccc(NC(=S)N2CCC(O)CC2)cc1`, the AC50 under setting [1] is 6.31 µM [falling, single point].
On the same count and under the same terms, in the case of `O=C(CCc1ccccc1)NNC(=S)NC(=O)c1ccc(Cl)cc1` it was 31.6 µM [rising, single point]; in that of `COc1ccc2c(c1)CCc1c(C(=O)Nc3c(C)nn(Cc4ccccc4)c3C)noc1-2`, 11.2 µM [rising, single point].
As for `O=C(NCCOc1cccc(Cl)c1Cl)c1cc(-n2cnnc2)ccc1Cl`, the AC50 is, setting by setting: under setting [2], 7.94 µM [rising, partial curve]; under setting [1], 14.1 µM [rising, partial curve].
For `COc1ccc(/C=N/NC(C)(C)C)c(OC)c1`, the AC50 by setting is: under setting [2], 0.00316 µM [falling, full curve, poor fit]; under setting [1], 0.158 µM [falling, full curve, poor fit].
As for `CCOc1ccc(NC(=O)c2cc(S(=O)(=O)NC3CCCCCC3)ccc2F)cc1`, the AC50 under setting [1] was 14.1 µM [rising, partial curve, poor fit].
The same measure, in the same setting: to `O=C(c1cccs1)N(Cc1nc2sc3c(c2c(=O)[nH]1)CCCC3)C1CCCC1` belongs 0.631 µM [rising, full curve].
Turning to `Brc1ccc2nc(-c3cccs3)c(NCC3CCCO3)n2c1` (stereo unspecified), under setting [2], the AC50 was 14.1 µM [rising, single point].
Regarding `CCCn1c(NC(=O)c2cccc(S(=O)(=O)N3CCCC3)c2)nc2ccccc21`, the AC50 was 35.5 µM [falling, single point] under setting [2] and 35.5 µM [falling, single point] under setting [1].
As to `Cc1ccc(-n2ncc3c(NCc4ccccn4)ncnc32)c(C)c1`, the AC50 is 1.41 µM [rising, partial curve] under setting [2] and 4.47 µM [rising, partial curve, poor fit] under setting [1].

For the origin of these results see PubChem BioAssay AID1487 (National Center for Advancing Translational Sciences (NCATS), 2009).
